The chains behind the UniProt entries cited, without tags or fusion partners. Where a name states a change or a piece, a line headed by the entry shows the natural chain unless it says otherwise.
UniProt P78324: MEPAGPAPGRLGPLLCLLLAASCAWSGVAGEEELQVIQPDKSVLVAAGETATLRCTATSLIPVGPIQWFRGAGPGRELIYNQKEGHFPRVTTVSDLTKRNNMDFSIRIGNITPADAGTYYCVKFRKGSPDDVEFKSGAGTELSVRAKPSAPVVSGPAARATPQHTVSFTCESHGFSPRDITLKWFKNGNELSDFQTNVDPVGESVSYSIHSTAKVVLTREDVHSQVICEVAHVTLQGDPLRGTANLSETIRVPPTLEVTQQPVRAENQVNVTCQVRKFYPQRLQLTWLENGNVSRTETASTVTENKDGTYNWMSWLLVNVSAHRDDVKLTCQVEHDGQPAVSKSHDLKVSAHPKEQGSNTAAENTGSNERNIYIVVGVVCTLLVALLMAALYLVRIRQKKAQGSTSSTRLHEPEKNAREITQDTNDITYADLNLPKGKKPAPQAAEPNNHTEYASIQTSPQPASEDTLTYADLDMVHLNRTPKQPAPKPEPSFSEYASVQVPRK

In patent US20250270315A1:

B1: 042c (antibody, V domains shown)
VH: QIQLVQSGPELKKPGETVKISCRASGYTFTTYGMSWVKQAPGKGLRWMGWINTYSGVSTCADDFKGRFAFSLETSATTAYLQIHNLTNEDTATYFCARDPHSYGNSPAWFPYWGQGTLVTVSA
VL: DIVMTQSQKFMSTTIRDRVSITCKASQNVGISVAWYQQKSGQSPKLLIYSASNRYTGVPDRFTGSGSGTDFTLTISNMQSEDLADYFCQQYSSYPLTFGSGTKLAIK
B2: 073c (antibody, V domains shown)
VH: QIQLVQSGPELKKPGETVKISCKASGYTFTTYGMSWVKQAPGKGLKWMVWINTYSGVPTYADDFKGRFAFSLETSASTSYLQINNLKNEDTATYFCARDPHYYGSSPAWFVYWGQGTLVTVSA
VL: B1 VL with R16G, K24E, N28I, S32A, S40P, D85N, S93A, L96F, A105E, I106V
B3: hu025.021 (antibody, V domains shown)
VH: EVQLVQSGAEVKKPGATVKISCKVSGFNIKDYYMHWVQQAPGKGLEWIGRIDPEDAETKYAPKFQGRVTITADTSTNTAYMELSSLRSEDTAVYYCDRGLAYWGQGTLVTVSS
VL: EIVLTQSPATLSLSPGERATLSCSASSSVSSSYLYWYQQKPGQAPKLWIYSTSNLASGIPARFSGSGSGTDYTLTISSLEPEDFAVYYCHQWSSYPYTFGQGTKLEIK
B4: hu025.033 (antibody, V domains shown)
VH: B3 VH with N77D
VL: B3 VL
B5: hu025.060 (antibody, V domains shown)
VH: B3 VH with V24A
VL: B3 VL with Y72F
B6: hu025.023 (antibody, V domains shown)
VH: B3 VH
VL: B3 VL with Y72F
B7: hu025.059 (antibody, V domains shown)
VH: B3 VH with V24A
VL: B3 VL
B8: 015c (antibody, V domains shown)
VH: EVQLQQSGVEVVQPGASVKLSCTASGFNIEAYYMHWVKQRTEQGLEWIGRIDPEDGESKYAPKFQGKATMTADTSSSTAYLQLSSLTSDDTAVYYCVRGSYEYWGQGTTLTVSS
VL: QIVLTQSPAIMSASPGEKVTLTCSASSSVSSSYLYWYQQKPGSSPKLWIYSTSNLASGVPPRFSGSGSGTSYSLTISSMQAEDAASYFCYQWSSYPYTFGGGTKLEIK
B9: 025c (antibody, V domains shown)
VH: EVQLQQSGAELVKPGASVKLSCTASGFNIKDYYMHWVKQRTEQGLEWIGRIDPEDGETKYAPKFQGKATITADTSSNTAYLQLSSLTSEDTAVYYCDRGLAYWGQGTLVTVSA
VL: B8 VL with P61A, Q80E, Y90H
B10: 059c (antibody, V domains shown)
VH: QVQLQQSGPELVKPGASVKMSCKASGYTFSEYVLSWVKQRTGQGLEWIGEIYPGTITTYYNEKFKGKATLTADKSSNTAYIQLTSLTSEDSAVYFCGRFYDYDGGWFAYWGQGTLLTVSA
VL: ENVLTQSPEKMAVSLGQKVTMTCSASSSVSSSDLHWYQQKSGASPKPLIHGTSNLASGVPARFSGSGSGTSYSLTISSVEAEDAATYYCQQWSGYPWTFGGGTNLEIK
B11: 005c (antibody, V domains shown)
VH: EVKLVESGGGLVQPGGSLSLSCAASGFTFTDYYMSWVRQPPGKALEWLGFIKNEANGYTTESSASVKGRFTISRDNSQSILYLQMNALRAEDSATYYCARYDYYGSNYNWYFDAWGTGTTVTVSS
VL: DIVMTQSQKFMSPSVGDRVSITCKASQNVRTAVAWYQQKPGQSPKVLIHLASKRHTGVPDRFTGSGSGTDFTLTISNVQSEDLADYFCLQHWIHPLTFGAGTKLELK
B12: hu1H9G4 (antibody, V domains shown)
VH: QVQLVQSGAEVKKPGASVKVSCKASGYTFTSYWITWVKQAPGQGLEWIGDIYPGSGSTNHIEKFKSKATLTVDTSISTAYMELSRLRSDDTAVYYCATGYGSSYGYFDYWGQGTLVTVSS
VL: DIQMTQSPSSLSASVGDRVTITCRASENIYSYLAWYQQKPGKAPKLLIYTAKTLAEGVPSRFSGSGSGTDFTLTISSLQPEDFATYYCQHQYGPPFTFGQGTKLELK
B13: 071c (antibody, V domains shown)
VH: B2 VH with K65Q, K87R, S105T, V111A
VL: B1 VL with R16G, S20I, N28I, S32A, S40P, Y55F, S93T, L96F, A105E

These binders were tested against cyno SIRPγ ECD recombinant protein (cyno) (assay: ELISA, cyno SIRPγ ECD (FIG. 4C)).

binding	Binder
binds	B1
binds	B2

The binders below were run against human SIRPα v2 expressed on cells (CHOK1 stable line KYinno KC-1720) (human) (UniProt P78324) (assay: FACS, CHOK1-human SIRPα v2 cells).

binding	Binder
binds	B3
binds	B4
binds	B5
binds	B6
binds	B7
binds	B8
binds	B9
binds	B10
binds	B11
binds	B12
binds	B1
binds	B2
binds	B13

What follows are binders tested against human SIRPα v2 expressed on cells (CHOK1 stable line KYinno KC-1720) (human) (UniProt P78324) (assay: FACS screening of humanized variants).

binding	Binder
binds	B3
binds	B4
binds	B5
binds	B6
binds	B7

Each binder was assayed against cyno SIRPγ ECD recombinant protein (cyno) (assay: ELISA, recombinant cyno SIRPγ ECD).

binding	Binder
binds	B9
binds	B12
binds	B1
binds	B2

These binders were tested against human SIRPα v2 expressed on cells (CHOK1 stable line KYinno KC-1720) (human) (UniProt P78324) (assay: FACS, CHOK1 cells stably expressing human SIRPα v2).

binding	Binder
binds	B3
binds	B4
binds	B5
binds	B6
binds	B7
binds	B8
binds	B9
binds	B10
binds	B11
binds	B12
binds	B1
binds	B2
binds	B13

Each binder was assayed against human SIRPα v2 ECD recombinant protein (tag not given) (human) (assay: competitive ELISA, coated human SIRPα v2 ECD, blocked ligand mFc tagged human CD47 ECD).

binding	Binder
binds	B3
binds	B4
binds	B5
binds	B6
binds	B7
binds	B8
binds	B9
binds	B10
binds	B12
binds	B1
binds	B2
binds	B13

The binders below were run against human SIRPα v2 expressed on cells (CHOK1 stable line KYinno KC-1720) (human) (UniProt P78324) (assay: competitive FACS, CHOK1 cells expressing human SIRPα v2, blocked ligand mFc tagged human CD47 ECD).

binding	Binder
binds	B5
binds	B6
binds	B9
binds	B12

Changes are numbered by the printed parent chain. These are yes or no findings as the source states them, for the method shown. Binding calls can cover weak binding; strength is not graded here.
